Values after ≈ are worked out from the molar mass of the structure shown.
System: Candida parapsilosis
Test: Antifungal activity against Candida parapsilosis ATCC 22019 assessed as inhibition of fungal growth
Type: functional
Details: Lodderomyces parapsilosis

Compound `OC(Cn1cncn1)(Cn1cncn1)c1ccc(F)cc1F` [FLUCONAZOLE] has an MIC of 4 µg/mL (≈ 13.1 µM).

From ChEMBL document CHEMBL5104131, “Pyrimidine-conjugated fluoroquinolones as new potential broad-spectrum antibacterial agents” (Bioorg Med Chem Lett, 2022)
